From PubChem BioAssay AID2549 (National Center for Advancing Translational Sciences (NCATS), 2010)
About 1,300 (0.54%) of roughly 240,000 compounds were called active. Inconclusive results, whose numbers are uncertain, are shown with a selection of clear calls. Calls follow the shape of the dose curve; as a rule, active = well fitted inhibition curve with a large enough effect; inconclusive = small, poorly fitted or top-dose-only effect; inactive = flat fitted curve, though single readings scatter. A potency beside an inconclusive call is a rough fit, not a confirmed value.
Also: nearly all actives have a fitted effect of over 30% in size.
Potency is read from the fitted curve at half-maximal effect.

Amino acid sequences for entries named in this document (tags omitted). A change or cut given only in a name is not applied to a line headed by its entry.
UniProt P46063: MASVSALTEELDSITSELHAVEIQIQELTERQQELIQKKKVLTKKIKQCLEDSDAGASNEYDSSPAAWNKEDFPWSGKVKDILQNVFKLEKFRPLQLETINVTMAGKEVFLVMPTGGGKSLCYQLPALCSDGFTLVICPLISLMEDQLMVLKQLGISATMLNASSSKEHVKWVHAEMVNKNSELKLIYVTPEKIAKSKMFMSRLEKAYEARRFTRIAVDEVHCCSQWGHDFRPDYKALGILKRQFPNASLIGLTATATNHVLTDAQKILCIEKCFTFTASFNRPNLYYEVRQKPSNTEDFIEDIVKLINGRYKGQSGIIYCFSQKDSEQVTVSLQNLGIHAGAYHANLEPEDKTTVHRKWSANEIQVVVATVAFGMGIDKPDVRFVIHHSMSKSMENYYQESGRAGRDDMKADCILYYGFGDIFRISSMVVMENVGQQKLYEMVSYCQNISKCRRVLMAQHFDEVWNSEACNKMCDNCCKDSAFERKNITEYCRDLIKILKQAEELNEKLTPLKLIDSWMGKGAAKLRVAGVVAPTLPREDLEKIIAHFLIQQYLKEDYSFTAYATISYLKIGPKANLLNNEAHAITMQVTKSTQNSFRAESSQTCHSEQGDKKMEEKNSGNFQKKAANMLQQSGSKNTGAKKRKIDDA

These compounds were tested against ATP-dependent DNA helicase Q1 (Homo sapiens) (UniProt P46063) (assay: qHTS Assay for Inhibitors of RecQ-Like Dna Helicase 1 (RECQ1)). Settings: RECQ1 DNA unwinding, red fluorescence kinetic read; series mostly up to 57.3 µM.
Summary of the method: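 RECQ1T1 50 nM; forked duplex (20 bp + 30-nt ss tails) 200 nM, ATP 2 mM final; pH 8.0, 2 mM MgCl2, 2.5 ug/ml poly(dI-dC); 15 min compound preincubation; discontinuous kinetic read over 2 h at RT.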
With `Cc1nc2c(ccc3nc(NC(=O)c4ccc5c(c4)OCCO5)sc32)s1` the Potency was active: 20 µM. In the case of `COc1ccc(-c2ccc(=O)n(CC(=O)Nc3ccc4c(c3)OCCO4)n2)cc1`, the Potency is reported as inconclusive: 0.141 µM [inhibitor, full curve, poor fit]. `CC(=O)Nc1cccc(C(=O)/C=C/c2ccc(N(C)C)cc2)c1` was tested, and the Potency was inconclusive: 31.6 µM [inhibitor, single point]. With `CCc1nn2c(=O)cc(COc3ccc(/C=C4\C(=N)N5N=C(C)SC5=NC4=O)cc3)nc2s1` the Potency was inconclusive: 10 µM [inhibitor, partial curve]. `Cc1c(Cl)cccc1N=Cc1ccc([N+](=O)[O-])s1` was tested, and the Potency was inconclusive: 28.2 µM [inhibitor, single point]. `CCc1cc[n+](C2=C([O-])c3ccccc3C(=O)/C2=N\S(=O)(=O)c2cccs2)cc1` was tested, and the Potency was inconclusive: 39.8 µM [inhibitor, partial curve, poor fit]. In the case of `CCc1cc2c(=O)c(-c3nc4ccccc4n3C)c(COCC(=O)O)oc2cc1O`, the Potency is reported as “inactive”. With `CCOc1ccc(CNC23CN4CN(CN(C4)C2)C3)cc1` the Potency was inconclusive: 35.5 µM [inhibitor, single point]. With `Cc1ccc(S(=O)(=O)N2CCCCC2)cc1C(=O)Nc1ccc(S(=O)(=O)Nc2ncccn2)cc1` the Potency was inconclusive: 22.4 µM [inhibitor, single point]. In the case of `CN(C)c1ccc(-c2nc(NCCc3cnc[nH]3)c3ccccc3n2)cc1`, the Potency is reported as inconclusive: 31.6 µM [inhibitor, partial curve]. With `COCCCNC(=O)c1ccc2c3c(onc13)-c1ccccc1C2=O` the Potency was active: 12.6 µM. `Cc1cc(C)n2c(Br)c(CSc3nc4ccccc4o3)nc2n1` was tested, and the Potency was inconclusive: 14.1 µM [inhibitor, partial curve, poor fit]. In the case of `O=C(c1ccccc1)c1c2c(cc3sc4ccccc4[n+]13)-c1cccc3cccc-2c13`, the Potency is reported as active: 14.1 µM. In the case of `Cc1cn(S(=O)(=O)c2ccc(Br)c3ccccc23)cn1`, the Potency is reported as “inactive”. `Cc1ccc(-n2nc(-c3ccco3)cc2C(=O)O)cc1` was tested, and the Potency was active: 20 µM. In the case of `Nc1cccc2c(=O)[nH]ccc12`, the Potency is reported as active: 20 µM. In the case of `COc1cccc(C(=O)N(c2ccc(C)cc2)C2C=CS(=O)(=O)C2)c1` (configuration not stated), the Potency is reported as inconclusive: 0.794 µM [inhibitor, partial curve, poor fit]. In the case of `O=C1NC(=O)/C(=C\c2ccccc2OCc2ccc([N+](=O)[O-])cc2)N1`, the Potency is reported as inconclusive: 1.41 µM [inhibitor, full curve]. `Cc1nn(-c2ccc(C(=O)OC(C)C)cc2)c(C)c1[N+](=O)[O-]` was tested, and the Potency was inconclusive: 0.178 µM [inhibitor, full curve]. `O=C(O)CC(CCc1ccccc1)OC1OC(CO)C(O)C(O)C1O` (configuration not stated) was tested, and the Potency was active: 3.55 µM. `Cc1cccc(NC(=O)CSc2nnc(-c3ccco3)c(-c3ccco3)n2)c1C` was tested, and the Potency was active: 17.8 µM. With `CN(C)S(=O)(=O)c1ccc2c(c1)/C(=C/c1cc3c([nH]1)CCCC3)C(=O)N2` the Potency was inconclusive: 35.5 µM [inhibitor, single point]. For `COCC(C)NCc1cccc([N+](=O)[O-])c1` (configuration not stated), the Potency was inconclusive: 20 µM [inhibitor, partial curve, poor fit]. For `O=C(NCc1cccnc1)c1cc(-c2ccco2)on1`, the Potency was “inactive”. For `O=C(COC(=O)c1cncc(Br)c1)NCc1ccco1`, the Potency was active: 14.1 µM. In the case of `CCN(CC)C(=O)CN1C(=O)C2(NC(=O)c3ccccc3N2)c2ccccc21` (configuration not stated), the Potency is reported as inconclusive: 0.158 µM [inhibitor, full curve, poor fit]. `O=C(NCCCCN1CCOCC1)c1cc2ccccc2o1` was tested, and the Potency was “inactive”. With `Cc1nnc(SCC(=O)NC(=O)NCc2ccco2)n1Cc1ccccc1` the Potency was inconclusive: 15.8 µM [inhibitor, partial curve]. In the case of `C=CCn1cccc(/C=C/C(=O)c2ccc(C(C)(C)C)cc2)c1=S`, the Potency is reported as “inactive”. For `N#C/C(=C\c1ccc(O)c(O)c1)C(=O)NCCCCc1ccccc1`, the Potency was active: 10 µM. For `CCOc1ccc(N2C(=O)CNC2=S)cc1`, the Potency was inconclusive: 20 µM [inhibitor, single point]. For `CCn1c(SC(C)C(=O)O)nc2sc3c(c2c1=O)CCC3` (configuration not stated), the Potency was inconclusive: 39.8 µM [inhibitor, single point]. In the case of `Cc1onc(-c2ccccc2)c1C(=O)NNC(=S)NC(=O)/C=C/c1cccs1`, the Potency is reported as inconclusive: 39.8 µM [inhibitor, partial curve]. With `O=C(CN1CCN(c2ccc(O)cc2)CC1)NC(=O)NCc1ccco1` the Potency was active: 22.4 µM. `COc1ccc(C2=Nn3c(nnc3-c3ccccc3O)SC2)cc1OC` was tested, and the Potency was “inactive”. `COc1ccc(-c2nnn(CC(=O)N(Cc3cccs3)C(C)C(=O)NCCC(C)C)n2)cc1OC` (configuration not stated) was tested, and the Potency was “inactive”. With `O=c1[nH]n2c(-c3ccccc3)nc(O)c2c2ccccc12` the Potency was inconclusive: 0.562 µM [inhibitor, single point]. For `CCCSc1oc(-c2ccco2)nc1S(=O)(=O)c1ccccc1`, the Potency was “inactive”. In the case of `O=C(O)Cn1cccc1C(=O)c1ccccc1`, the Potency is reported as inconclusive: 31.6 µM [inhibitor, single point]. In the case of `COc1cc(C2C(C#N)=C(SC)NC3=C2C(=O)CCC3)ccc1O` (configuration not stated), the Potency is reported as inconclusive: 0.447 µM [inhibitor, partial curve, poor fit]. `N#C/C(=C/c1ccncc1)c1nc2ccccc2c(=O)[nH]1` was tested, and the Potency was “inactive”. For `C#Cc1ccc([C@@H]2C=C(C(=O)NCc3ccccc3)O[C@H](OCc3ccc(CO)cc3)C2)cc1`, the Potency was inconclusive: 39.8 µM [inhibitor, single point]. With `CSCCOC(=O)C1=C(C)Nc2ccc(C)cc2S1` the Potency was inconclusive: 0.141 µM [inhibitor, partial curve, poor fit]. `Cn1cc(-c2nc3cnc(N4CCNCC4)nc3n(C3CC3)c2=O)c2ccccc21` was tested, and the Potency was “inactive”. `O=C(O)COc1cccc2c1CCC=C2CCO/N=C(\c1ccccc1)c1cccnc1` was tested, and the Potency was “inactive”. With `Nc1nc2c(s1)CCc1c-2cnn1-c1ccccc1` the Potency was inconclusive: 39.8 µM [inhibitor, single point]. With `COc1ccc(C2NC(=S)NC(O)(C(F)(F)F)C2C(=O)c2cccs2)cc1` (configuration not stated) the Potency was inconclusive: 31.6 µM [inhibitor, partial curve].
